# Measured values taken from PMC10185471.
# By UniProt entry, the sequences of proteins in these tests, tags left out. Residues count along the entry.
# UniProt Q9Z2G6, residues 22-790: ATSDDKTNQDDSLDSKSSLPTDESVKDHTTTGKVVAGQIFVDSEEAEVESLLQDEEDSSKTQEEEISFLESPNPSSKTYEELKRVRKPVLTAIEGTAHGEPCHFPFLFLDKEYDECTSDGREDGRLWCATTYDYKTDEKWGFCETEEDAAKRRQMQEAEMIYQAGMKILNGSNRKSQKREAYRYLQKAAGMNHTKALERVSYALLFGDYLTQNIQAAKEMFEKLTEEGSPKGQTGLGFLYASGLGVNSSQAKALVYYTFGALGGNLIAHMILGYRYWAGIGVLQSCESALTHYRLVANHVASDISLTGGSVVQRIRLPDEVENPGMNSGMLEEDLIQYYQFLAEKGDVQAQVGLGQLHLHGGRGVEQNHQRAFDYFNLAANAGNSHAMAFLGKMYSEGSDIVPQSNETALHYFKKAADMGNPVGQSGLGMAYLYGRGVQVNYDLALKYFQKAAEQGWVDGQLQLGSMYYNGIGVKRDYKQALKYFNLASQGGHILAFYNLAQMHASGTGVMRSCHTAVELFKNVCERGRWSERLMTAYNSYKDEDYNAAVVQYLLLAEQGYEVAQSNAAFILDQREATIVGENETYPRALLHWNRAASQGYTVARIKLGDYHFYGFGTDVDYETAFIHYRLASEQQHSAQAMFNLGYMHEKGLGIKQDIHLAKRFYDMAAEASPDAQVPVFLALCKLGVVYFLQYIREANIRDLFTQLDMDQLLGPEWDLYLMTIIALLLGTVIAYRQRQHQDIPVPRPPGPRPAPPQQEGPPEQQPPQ
# Target: SEL1L-TurboID-V5 (UniProt Q9Z2G6)
# Test: proximity labelling; MEF transfected with SEL1L-TurboID-V5 (in the presence of H151), cGAMP for the indicated times, 50 µM biotin 10 min at 37 °C; streptavidin agarose, immunoblot
binder,measurement,value
"CALNEXIN, endogenous, mouse (protein, UniProt P35564 21-591) HDGHDDDAIDIEDDLDDVIEEVEDSKSKSDASTPPSPKVTYKAPVPTGEVYFADSFDRGSLSGWILSKAKKDDTDDEIAKYDGKWEVDEMKETKLPGDKGLVLMSRAKHHAISAKLNKPFLFDTKPLIVQYEVNFQNGIECGGAYVKLLSKTAELSLDQFHDKTPYTIMFGPDKCGEDYKLHFIFRHKNPKTGVYEEKHAKRPDADLKTYFTDKKTHLYTLILNPDNSFEILVDQSVVNSGNLLNDMTPPVNPSREIEDPEDRKPEDWDERPKIADPDAVKPDDWDEDAPSKIPDEEATKPEGWLDDEPEYIPDPDAEKPEDWDEDMDGEWEAPQIANPKCESAPGCGVWQRPMIDNPNYKGKWKPPMIDNPNYQGIWKPRKIPNPDFFEDLEPFKMTPFSAIGLELWSMTSDIFFDNFIISGDRRVVDDWANDGWGLKKAADGAAEPGVVLQMLEAAEERPWLWVVYILTVALPVFLVILFCCSGKKQSNAMEYKKTDAPQPDVKDEEGKEEEKNKRDEEEEEEKLEEKQKSDAEEDGVTGSQDEEDSKPKAEEDEILNRSPRNRKPRRE",binding,binds

# Results are given in words; binding and its absence hold for the method and conditions named. Binding seen in cells or lysates may run through a third protein. A yes stands for co-enrichment or nearness to the bait. Other partners may have been found.
